# Experimental data: PubChem BioAssay AID1224826 (NIAID, 2016)
# Assay: 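Regulators of Tlr4 signalling leading to Tnf-alpha expression in macrophages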 (primary screen)
# Cells: RAW264.7 G9 macrophages from mouse bearing reporters for p65 (GFP) and the Tnf promoter (mCherry)
# Reagent: siRNA pool against mouse genes, 100 nM
# Time to read-out: 16 h of LPS stimulation, after 2 days of siRNA transfection
# Treatment: bacterial lipopolysaccharide (Salmonella minnesota R595), 10 ng/ml
# Measurement: 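Nuclear mCherry signal of the Tnf promoter reporter measured by imaging after background removal, scaled to each plate median and turned into robust z-scores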
# Scale: Tnf reporter robust z-score: higher = stronger Tnf promoter reporter signal after LPS; Tnf reporter intensity: higher = stronger Tnf promoter reporter signal
# Call rule: 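Called active when robust z-score is at most -1.3, matching the median of the Tlr4 knock-down control, or over 3; control wells and wells with under 50 cells never active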
# Meaning of the calls: active = Tnf reporter clearly lowered or raised; inactive = no clear change in Tnf reporter
# Here is an unselected part of about 17,000 reagents tested. Of all reagents, about 1,110 (6.6%) are marked active. 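Active means lowered or raised reporter signal; replicate intensities are raw and not normalised per plate.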 The numbers tell different reagents against one gene apart. Reagent sequences are not shown.
target,reagent,Tnf reporter robust z-score,fewer than 50 cells in well,"Tnf reporter intensity, replicate 1","Tnf reporter intensity, replicate 2",call
Scgb3a1 (GeneID 68662),1,-0.7,enough cells in well,99.5,96,inactive
Higd1a (GeneID 56295),1,1.07,enough cells in well,306,272,inactive
Zfp42 (GeneID 22702),1,-0.61,enough cells in well,49.5,100,inactive
Hspa4l (GeneID 18415),1,-0.69,enough cells in well,216,115,inactive
Lsm2 (GeneID 27756),1,0.94,enough cells in well,211,226,inactive
Trmt1 (GeneID 212528),1,-1.49,enough cells in well,105,71.2,active
Serpine1 (GeneID 18787),1,-0.2,enough cells in well,333,139,inactive
Nfil3 (GeneID 18030),1,0.07,enough cells in well,260,176,inactive
Fis1 (GeneID 66437),1,0.17,enough cells in well,125,56.8,inactive
Or8c16 (GeneID 258868),1,-0.56,enough cells in well,84,90.5,inactive
Or2g25 (GeneID 258263),1,1.76,enough cells in well,311,230,inactive
P4hb (GeneID 18453),1,-0.91,enough cells in well,208,94.1,inactive
Rhod (GeneID 11854),1,0.45,enough cells in well,322,258,inactive
Serpinb1c (GeneID 380839),1,0.82,enough cells in well,135,123,inactive
Masp1 (GeneID 17174),1,1.52,enough cells in well,317,197,inactive
Mpi (GeneID 110119),1,0.61,enough cells in well,274,283,inactive
Syt7 (GeneID 54525),1,-1.66,enough cells in well,54.3,52.7,active
Spata6 (GeneID 67946),1,1.35,enough cells in well,172,120,inactive
Gramd1c (GeneID 207798),1,,fewer than 50 cells per well; well left out of calls,112,55.8,inactive
Slc30a6 (GeneID 210148),1,,fewer than 50 cells per well; well left out of calls,69.6,43.7,inactive
Psmd11 (GeneID 69077),1,,fewer than 50 cells per well; well left out of calls,0,195,inactive
Gins4 (GeneID 109145),1,2,enough cells in well,451,108,inactive
Cd47 (GeneID 16423),1,-0.67,enough cells in well,195,157,inactive
Cd47 (GeneID 16423),2,-0.96,enough cells in well,121,129,inactive
Gtf2ird1 (GeneID 57080),1,-0.36,enough cells in well,203,227,inactive
Chil6 (GeneID 229688),1,0.24,enough cells in well,108,177,inactive
BC106179 (GeneID 320099),1,-0.06,enough cells in well,219,183,inactive
Spata16 (GeneID 70862),1,,fewer than 50 cells per well; well left out of calls,153,64.7,inactive
Mrpl1 (GeneID 94061),1,-0.82,enough cells in well,204,137,inactive
Il17rc (GeneID 171095),1,-1.5,enough cells in well,103,52,active
Kmt5c (GeneID 232811),1,0.36,enough cells in well,186,285,inactive
Agtpbp1 (GeneID 67269),1,-0.76,enough cells in well,130,162,inactive
Rps6ka1 (GeneID 20111),1,0.35,enough cells in well,189,208,inactive
Acad12 (GeneID 338350),1,-0.75,enough cells in well,152,123,inactive
Bpifa5 (GeneID 67135),1,,fewer than 50 cells per well; well left out of calls,179,47.4,inactive

Called active, among the entries above:
target,reagent,Tnf reporter robust z-score,fewer than 50 cells in well,"Tnf reporter intensity, replicate 1","Tnf reporter intensity, replicate 2",call
Trmt1 (GeneID 212528),1,-1.49,enough cells in well,105,71.2,active
Syt7 (GeneID 54525),1,-1.66,enough cells in well,54.3,52.7,active
Il17rc (GeneID 171095),1,-1.5,enough cells in well,103,52,active

Next records:
target,reagent,Tnf reporter robust z-score,fewer than 50 cells in well,"Tnf reporter intensity, replicate 1","Tnf reporter intensity, replicate 2",call
Fam229b (GeneID 66337),1,-1.07,enough cells in well,168,40.2,inactive
Map7d3 (GeneID 320923),1,-0.18,enough cells in well,183,123,inactive
Tpx2 (GeneID 72119),1,,fewer than 50 cells per well; well left out of calls,158,50.5,inactive
Fancb (GeneID 237211),1,0.59,enough cells in well,234,264,inactive
Mep1a (GeneID 17287),1,0.66,enough cells in well,303,266,inactive
Msl1 (GeneID 74026),1,0.55,enough cells in well,217,75.1,inactive
Asz1 (GeneID 74068),1,-1.08,enough cells in well,156,87.6,inactive
Pla2g3 (GeneID 237625),1,-0.82,enough cells in well,129,97.2,inactive
Sult1c2 (GeneID 69083),1,1.17,enough cells in well,150,130,inactive
1600012H06Rik (GeneID 67912),1,,fewer than 50 cells per well; well left out of calls,65,0,inactive
Zfp414 (GeneID 328801),1,0.28,enough cells in well,308,75,inactive
Elp1 (GeneID 230233),1,,fewer than 50 cells per well; well left out of calls,221,183,inactive
Tial1 (GeneID 21843),1,-0.23,enough cells in well,228,115,inactive
Efna2 (GeneID 13637),1,0.5,enough cells in well,264,274,inactive
Tsx (GeneID 22127),1,-0.09,enough cells in well,115,107,inactive
Sytl2 (GeneID 83671),1,0.78,enough cells in well,171,98.5,inactive
Glra1 (GeneID 14654),1,-1.02,enough cells in well,147,131,inactive
Tma16 (GeneID 66282),1,1.87,enough cells in well,266,94.9,inactive
Mapk1ip1l (GeneID 218975),1,-0.2,enough cells in well,97.3,163,inactive
Herc3 (GeneID 73998),1,0.22,enough cells in well,360,111,inactive
Chil3 (GeneID 12655),1,-0.57,enough cells in well,121,159,inactive
Jmjd4 (GeneID 194952),1,-0.3,enough cells in well,159,144,inactive
Krtap19-9b (GeneID 170939),1,1.01,enough cells in well,245,213,inactive
Adra1d (GeneID 11550),1,-0.85,enough cells in well,137,238,inactive
Rap1b (GeneID 215449),1,-0.21,enough cells in well,287,191,inactive
Soat1 (GeneID 20652),1,0.15,enough cells in well,315,208,inactive
Prl3d2 (GeneID 215028),1,-0.76,enough cells in well,72.3,91.4,inactive
Srsf1 (GeneID 110809),1,,fewer than 50 cells per well; well left out of calls,60.9,52.8,inactive
Abhd8 (GeneID 64296),1,-0.89,enough cells in well,114,106,inactive
Angptl6 (GeneID 70726),1,-0.13,enough cells in well,269,111,inactive
Gak (GeneID 231580),1,0.41,enough cells in well,239,166,inactive
Fabp7 (GeneID 12140),1,0.73,enough cells in well,267,308,inactive
Or6c3b (GeneID 258547),1,,fewer than 50 cells per well; well left out of calls,65.2,45.2,inactive
Serpinb13 (GeneID 241196),1,-0.04,enough cells in well,244,239,inactive
Prl7a1 (GeneID 19113),1,0.8,enough cells in well,181,147,inactive
Lrrc26 (GeneID 227618),1,0.09,enough cells in well,223,202,inactive
Krt14 (GeneID 16664),1,0.44,enough cells in well,251,190,inactive
Prkdc (GeneID 19090),1,0.01,enough cells in well,193,133,inactive
Zfp128 (GeneID 243833),1,-0.51,enough cells in well,102,104,inactive
4930433I11Rik (GeneID 243944),1,1.04,enough cells in well,277,89.9,inactive
